No constants are given. Whether binding was seen depends on the method and setting. In cells and extracts the contact can be indirect. Some entries that bind do so weakly or less than the wild type.
T1: NRPE2 (Arabidopsis thaliana (endogenous in seedlings)) (UniProt Q9LK40)
T1 sequence: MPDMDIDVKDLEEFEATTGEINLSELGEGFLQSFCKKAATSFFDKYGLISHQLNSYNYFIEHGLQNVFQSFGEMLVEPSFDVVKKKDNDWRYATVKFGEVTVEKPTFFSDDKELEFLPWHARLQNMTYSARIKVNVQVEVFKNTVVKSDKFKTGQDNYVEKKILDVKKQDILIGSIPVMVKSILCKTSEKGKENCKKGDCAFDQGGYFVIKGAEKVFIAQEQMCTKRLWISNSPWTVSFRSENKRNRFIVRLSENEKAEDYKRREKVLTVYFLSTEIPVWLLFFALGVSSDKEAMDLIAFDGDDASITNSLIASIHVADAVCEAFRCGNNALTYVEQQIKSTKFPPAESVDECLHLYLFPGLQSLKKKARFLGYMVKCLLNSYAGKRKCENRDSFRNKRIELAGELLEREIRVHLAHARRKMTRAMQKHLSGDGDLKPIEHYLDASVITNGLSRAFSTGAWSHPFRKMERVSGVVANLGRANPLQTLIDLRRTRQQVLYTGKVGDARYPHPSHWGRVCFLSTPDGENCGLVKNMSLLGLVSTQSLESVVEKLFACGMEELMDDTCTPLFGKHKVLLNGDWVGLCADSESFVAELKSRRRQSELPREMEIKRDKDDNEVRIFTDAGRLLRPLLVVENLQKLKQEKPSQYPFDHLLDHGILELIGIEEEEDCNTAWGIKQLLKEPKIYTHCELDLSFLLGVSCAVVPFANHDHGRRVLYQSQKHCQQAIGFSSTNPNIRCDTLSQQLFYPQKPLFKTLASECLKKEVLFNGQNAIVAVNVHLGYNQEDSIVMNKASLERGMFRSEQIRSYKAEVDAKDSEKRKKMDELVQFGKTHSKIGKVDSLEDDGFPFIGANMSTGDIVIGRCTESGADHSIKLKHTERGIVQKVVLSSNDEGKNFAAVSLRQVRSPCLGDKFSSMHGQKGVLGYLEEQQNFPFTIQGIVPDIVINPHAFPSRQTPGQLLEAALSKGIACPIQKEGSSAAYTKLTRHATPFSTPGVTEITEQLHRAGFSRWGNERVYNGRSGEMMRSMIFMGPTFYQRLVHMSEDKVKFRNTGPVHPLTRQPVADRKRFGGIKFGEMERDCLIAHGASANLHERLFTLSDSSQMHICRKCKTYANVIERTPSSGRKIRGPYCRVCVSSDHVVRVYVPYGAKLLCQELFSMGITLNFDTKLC

Protein sequences, listed by entry. Tags and fused reporters are not part of them.
UniProt Q5D869: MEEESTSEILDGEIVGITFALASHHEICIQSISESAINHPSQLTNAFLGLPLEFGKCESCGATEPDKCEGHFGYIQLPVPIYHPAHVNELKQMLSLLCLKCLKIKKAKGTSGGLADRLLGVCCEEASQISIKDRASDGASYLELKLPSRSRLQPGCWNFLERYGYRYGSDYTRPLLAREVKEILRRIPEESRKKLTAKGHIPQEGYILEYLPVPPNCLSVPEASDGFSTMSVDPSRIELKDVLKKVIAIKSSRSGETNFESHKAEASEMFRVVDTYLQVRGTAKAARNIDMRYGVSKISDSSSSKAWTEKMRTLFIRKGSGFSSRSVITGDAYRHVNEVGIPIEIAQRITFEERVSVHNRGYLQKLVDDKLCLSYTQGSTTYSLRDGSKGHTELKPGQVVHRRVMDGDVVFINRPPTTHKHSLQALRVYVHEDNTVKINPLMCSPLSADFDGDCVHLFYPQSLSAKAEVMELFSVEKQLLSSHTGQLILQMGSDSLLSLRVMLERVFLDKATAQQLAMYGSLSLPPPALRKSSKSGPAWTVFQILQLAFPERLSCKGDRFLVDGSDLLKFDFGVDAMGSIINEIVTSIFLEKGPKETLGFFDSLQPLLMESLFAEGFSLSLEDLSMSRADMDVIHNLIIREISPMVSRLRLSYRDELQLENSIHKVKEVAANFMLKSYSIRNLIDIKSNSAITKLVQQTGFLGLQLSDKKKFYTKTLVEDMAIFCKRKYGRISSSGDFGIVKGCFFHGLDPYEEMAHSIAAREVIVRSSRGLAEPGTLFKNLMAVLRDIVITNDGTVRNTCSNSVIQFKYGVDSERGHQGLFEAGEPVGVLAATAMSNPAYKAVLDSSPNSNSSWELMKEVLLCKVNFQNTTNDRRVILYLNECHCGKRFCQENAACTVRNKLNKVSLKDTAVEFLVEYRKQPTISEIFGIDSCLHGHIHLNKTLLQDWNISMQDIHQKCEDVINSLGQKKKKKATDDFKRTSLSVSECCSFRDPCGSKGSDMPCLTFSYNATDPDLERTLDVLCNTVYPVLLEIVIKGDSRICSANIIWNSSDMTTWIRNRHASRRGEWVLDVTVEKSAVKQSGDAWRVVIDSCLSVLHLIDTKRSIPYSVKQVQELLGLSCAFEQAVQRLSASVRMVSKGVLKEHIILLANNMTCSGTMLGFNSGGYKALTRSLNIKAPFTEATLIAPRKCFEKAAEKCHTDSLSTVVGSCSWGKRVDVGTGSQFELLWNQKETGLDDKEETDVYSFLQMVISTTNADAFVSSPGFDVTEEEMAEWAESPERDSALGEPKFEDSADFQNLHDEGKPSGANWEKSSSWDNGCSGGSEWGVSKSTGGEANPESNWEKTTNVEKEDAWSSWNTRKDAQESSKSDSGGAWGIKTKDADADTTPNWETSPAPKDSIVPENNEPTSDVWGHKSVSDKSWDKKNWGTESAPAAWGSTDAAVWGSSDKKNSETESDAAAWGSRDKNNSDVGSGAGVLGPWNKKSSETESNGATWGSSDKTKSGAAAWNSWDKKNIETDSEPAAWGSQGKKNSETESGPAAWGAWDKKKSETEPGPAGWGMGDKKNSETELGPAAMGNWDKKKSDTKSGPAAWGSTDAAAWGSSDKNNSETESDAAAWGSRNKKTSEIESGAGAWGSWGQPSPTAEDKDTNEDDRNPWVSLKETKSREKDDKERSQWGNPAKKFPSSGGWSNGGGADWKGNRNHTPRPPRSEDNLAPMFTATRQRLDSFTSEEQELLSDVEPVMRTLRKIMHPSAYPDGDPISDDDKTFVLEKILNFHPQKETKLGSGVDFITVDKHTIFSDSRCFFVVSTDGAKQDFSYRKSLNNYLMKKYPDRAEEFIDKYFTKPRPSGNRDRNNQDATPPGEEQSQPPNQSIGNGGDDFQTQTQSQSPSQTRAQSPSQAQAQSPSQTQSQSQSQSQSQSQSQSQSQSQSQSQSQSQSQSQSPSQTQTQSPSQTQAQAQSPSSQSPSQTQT
UniProt Q9FJ98: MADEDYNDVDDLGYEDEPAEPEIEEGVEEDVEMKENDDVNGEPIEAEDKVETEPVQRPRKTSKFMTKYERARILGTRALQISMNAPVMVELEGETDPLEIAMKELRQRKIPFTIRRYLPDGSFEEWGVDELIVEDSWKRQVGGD
UniProt Q9FJW0: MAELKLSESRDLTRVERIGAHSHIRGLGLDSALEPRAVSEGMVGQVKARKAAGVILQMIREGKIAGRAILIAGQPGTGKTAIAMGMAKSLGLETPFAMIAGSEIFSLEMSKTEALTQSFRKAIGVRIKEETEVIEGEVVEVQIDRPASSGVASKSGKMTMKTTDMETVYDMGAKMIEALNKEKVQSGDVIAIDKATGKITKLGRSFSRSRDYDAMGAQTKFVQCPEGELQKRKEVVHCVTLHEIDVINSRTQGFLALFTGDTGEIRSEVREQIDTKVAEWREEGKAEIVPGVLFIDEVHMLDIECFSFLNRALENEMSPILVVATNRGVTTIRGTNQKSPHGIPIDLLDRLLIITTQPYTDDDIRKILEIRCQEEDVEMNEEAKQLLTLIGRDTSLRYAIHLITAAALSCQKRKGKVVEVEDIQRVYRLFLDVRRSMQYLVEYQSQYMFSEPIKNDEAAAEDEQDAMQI
UniProt Q9FMR9: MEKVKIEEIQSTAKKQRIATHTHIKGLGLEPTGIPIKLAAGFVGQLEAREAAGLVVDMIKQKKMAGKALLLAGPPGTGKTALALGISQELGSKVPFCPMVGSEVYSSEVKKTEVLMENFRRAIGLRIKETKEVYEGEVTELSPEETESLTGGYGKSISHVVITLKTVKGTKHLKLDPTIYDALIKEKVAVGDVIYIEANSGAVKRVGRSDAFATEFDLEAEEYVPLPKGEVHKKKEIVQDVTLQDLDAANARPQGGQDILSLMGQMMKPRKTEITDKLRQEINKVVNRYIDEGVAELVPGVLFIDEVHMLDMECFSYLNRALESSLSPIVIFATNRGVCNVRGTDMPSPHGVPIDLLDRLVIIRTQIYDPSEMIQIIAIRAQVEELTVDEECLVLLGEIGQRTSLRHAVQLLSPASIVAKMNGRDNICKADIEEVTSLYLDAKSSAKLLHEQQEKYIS


What was measured:
[1] = biological target: NRPE1-FLAG (largest subunit of nuclear RNA polymerase V) (Arabidopsis thaliana) (UniProt Q5D869); assay: cross-linking; Pol V complex held on dimethylated anti-FLAG beads, washed with 1 M NaCl lysis buffer, cross-linked on the beads with 5 mM BS3 in 30 mM HEPES pH 7.5, 150 mM NaCl, 1 h, room temperature; trypsin (FASP), LC MS/MS, Batch-Tag search
[2] = biological target: T1, NRPE2 (Arabidopsis thaliana (endogenous in seedlings)); assay: cross-linking; Pol V complex immunopurified on dimethylated anti-FLAG beads, washed with 1 M NaCl lysis buffer, cross-linked on beads with 5 mM BS3 in 30 mM HEPES pH 7.5, 150 mM NaCl, 1 h, room temperature; trypsin (FASP); LC MS/MS, Batch-Tag search for inter-crosslinked peptides
[3] = biological target: T1, NRPE2 (Arabidopsis thaliana (endogenous in seedlings)); assay: cross-linking; Pol V complex held on dimethylated anti-FLAG beads, washed with 1 M NaCl lysis buffer, cross-linked on the beads with 5 mM BS3 in 30 mM HEPES pH 7.5, 150 mM NaCl, 1 h, room temperature; trypsin (FASP), LC MS/MS, Batch-Tag search

| Molecule | binding [1] | binding [2] | binding [3] |
| --- | --- | --- | --- |
| NRPE6a (from UniProt Q9FJ98 1-144) | binds | – | – |
| RuvB-like helicase (from UniProt Q9FJW0 1-469) | binds | – | – |
| RuvB-like protein 1 (RIN1) (from UniProt Q9FMR9 1-458) | binds | – | – |
| NRPE4 (protein, UniProt Q6DBA5 1-205) MSEKGGKGLKSSLKSKDGGKDGSSTKLKKGRKIHFDQRTPPANYKILNVSSDQQPFQSSAAKCGKSDKPTKSSKNSLHSFELKDLPENAECMMDCEAFQILDGIKGQLVGLSEDPSIKIPVSYDRALAYVESCVHYTNPQSVRKVLEPLKTYGISDGEMCVIANASSESVDEVLAFIPSLKTKKEVINQPLQDALEELSKLKKSE | – | binds | binds |

From article PMC5320500
